From the supplement of paper PMC12889115 come the findings set out here.

This is one part of the list. Values are raw readings; no control value is given beside them.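 First-pass screen: polymyxin B was added at a level that permeabilizes the Salmonella outer membrane while sparing the inner membrane. DMSO wells, with and without polymyxin B, defined maximum growth. Because plates differed from one another, each plate's data were ranked separately and the compounds with the lowest OD600 were carried forward as hits.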

The subject of the experiment is Salmonella enterica serovar Typhimurium SL1344. In words: bacterial growth OD600 after 18 h with compound and polymyxin B; higher = more bacterial growth (less inhibition). The note with it: 50 µM, Mueller-Hinton broth.

In the case of `COCc1nc2cc(NC(=O)Cc3ccccc3)cc(C(=O)N(C)Cc3csc(C)n3)c2n1C`, the “bacterial growth OD600” value (polymyxin B 0.75 µg/mL) stood at 0.855.
Regarding `Cc1ccn(CCC(=O)N2CCCC(N3CCN(c4ccccc4C)CC3)C2)n1` (stereo unspecified), the “bacterial growth OD600” value (polymyxin B 1 µg/mL) is 0.839.
For `CN(C)CC(C)(O)c1ccc2c(c1)CN(C(=O)CCc1nc3cc(F)ccc3[nH]1)CCO2` (stereo unspecified), the “bacterial growth OD600” value (polymyxin B 0.75 µg/mL) stood at 0.855.
`CC(C)(C)CN1CCC(Oc2ccc(C(=O)N3CCCC(O)C3)cc2Cl)CC1` (stereo unspecified): the “bacterial growth OD600” value (polymyxin B 0.75 µg/mL) was 0.823.
On to `COc1ccc(CNC(=O)CCC2CCCN(Cc3cccs3)C2)c(OC)c1` (stereo unspecified), for which, where the note is “polymyxin B 0.75 µg/mL”, the “bacterial growth OD600” value came out at 0.796.
Regarding `Cc1cccc(CN2CCC(n3nccc3NC(=O)c3ccccc3C)CC2)n1`, the “bacterial growth OD600” value (polymyxin B 1 µg/mL) worked out at 0.913.
Regarding `O=C(NC1CCOCC1)C1CCN(c2nc(-c3ccccc3)nc3c2CCC3)CC1`, where the note is “polymyxin B 0.75 µg/mL”, the “bacterial growth OD600” value came to 0.75.
In the case of `COc1cccc(CCC2CCCN(C(=O)C3CCN(C(C)=O)CC3)C2)c1` (stereo unspecified), the “bacterial growth OD600” value (polymyxin B 0.75 µg/mL) came out at 0.844.
For `CCNC(=O)c1cn(CC(C)C)cc(C(=O)N2CCCCC2CC)c1=O` (stereo unspecified), where the note is “polymyxin B 0.75 µg/mL”, the “bacterial growth OD600” value stood at 0.827.
For the compound `O=C1N(Cc2ccccc2F)CCCC1(O)CN1CCOCC1` (stereo unspecified), the “bacterial growth OD600” value (polymyxin B 1 µg/mL) came out at 0.96.
Consider `CN(Cc1nc(N2CCOCC2)c2ccc(Cl)cc2n1)Cc1ccccc1C(F)(F)F`, for which, where the note is “polymyxin B 0.75 µg/mL”, the “bacterial growth OD600” value came to 0.602.
For the compound `C=CCC(O)(CC=C)C(C)NC(=O)CCC1(Cc2ccc(Cl)cc2)CCC(=O)N1` (stereo unspecified), where the note is “polymyxin B 0.75 µg/mL”, the “bacterial growth OD600” value was found to be 0.921.
As for `CO[C@H]1[C@H](NC(=O)COc2ccccc2)c2ccccc2C12CCN(C(=O)C1CCCCC1)CC2`, the “bacterial growth OD600” value (polymyxin B 0.75 µg/mL) amounted to 0.006.
Consider `COc1cc2nc(-c3cc4c(c(OC)c3)OCCN(C(=O)c3cccs3)C4)cc(C)c2cc1OC`, for which, for the setting “polymyxin B 0.75 µg/mL”, the “bacterial growth OD600” value turned out to be 0.646.
Turning to `Cc1ncsc1CCC(=O)N1CCOC(CCCC(C)C)C1` (stereo unspecified), the “bacterial growth OD600” value (polymyxin B 1 µg/mL) turned out to be 1.
As to `CCC1CCCCN1C(=O)CCC1(Cc2ccc(F)c(OC)c2)CCC(=O)N1` (stereo unspecified), the “bacterial growth OD600” value (polymyxin B 0.75 µg/mL) amounted to 0.771.
In the case of `CCOC(=O)C1(Cc2ccc(F)cc2F)CCCN(C(C)=O)C1` (stereo unspecified), the “bacterial growth OD600” value (polymyxin B 1 µg/mL) was 0.834.
In the case of `COc1cc2nc(N(C)C)c(CNCc3cccc(Cl)c3)cc2c(OC)c1OC`, the “bacterial growth OD600” value (polymyxin B 0.75 µg/mL) was 0.816.
As for `CN(C)C(=O)c1ccc(N2CCC(NCCC(c3ccccc3)c3ccco3)CC2)cc1` (stereo unspecified), the “bacterial growth OD600” value (polymyxin B 0.75 µg/mL) was found to be 1.01.
Turning to `O=C(c1ccc(N2CCOCC2)cc1)N(Cc1ccncc1)Cc1cccc(OCCc2ccc(F)cc2)c1`, the “bacterial growth OD600” value (polymyxin B 0.75 µg/mL) is -0.001.
The same measure, in the same setting: the value for `Cc1c[nH]c(CN(C)C(=O)C2(N3CCCCC3)Cc3ccccc3C2)n1` was 0.304.
For the compound `C=CCNCc1cn(-c2ccc(OC)cc2)nc1-c1ccccc1Cl`, under “polymyxin B 1 µg/mL”, the “bacterial growth OD600” value was 0.599.
Still for that read-out and setting: the value for `Cc1ccc(CN2CCN(Cc3ccccc3C)CC2CCO)o1` (stereo unspecified) was 1.05; that for `O=C(CCC1CCCN(C(=O)c2ccc3ccccc3c2)C1)NC1CC1` (stereo unspecified) was 0.89.
For the compound `CC(c1cccs1)N(C)C(=O)CC1(c2ccccc2)CC(=O)N(CCCOc2cccnc2)C1=O` (stereo unspecified), for the setting “polymyxin B 0.75 µg/mL”, the “bacterial growth OD600” value came out at 0.763.
`Cc1ccccc1-c1cnnc(N2CCOCC2)n1`: where the note is “polymyxin B 0.75 µg/mL”, the “bacterial growth OD600” value turned out to be 0.874.
For the compound `O=C(c1cc(COc2ccccc2F)[nH]n1)N1CCOCC1`, the “bacterial growth OD600” value (polymyxin B 1 µg/mL) was determined as 0.828.
On the same count and under the same terms, in the case of `COc1ccccc1OCc1cc(C(=O)NC2(c3ccccc3)CC2)n[nH]1` it was 1.02.
On to `COc1cccc(C2c3[nH]c4ccccc4c3CCN2Cc2ccc(CO)o2)c1OC` (stereo unspecified), for which the “bacterial growth OD600” value (polymyxin B 0.75 µg/mL) was determined as 0.842.
On to `O=C(Nc1ccnn1C1CCN(C(=O)CCOc2ccccc2)CC1)C1CCOC1` (stereo unspecified), for which the “bacterial growth OD600” value (polymyxin B 1 µg/mL) came to 1.01.
With `COCc1ccc(CN2CCOc3ccc(CN4CCC(OCc5ccccc5)CC4)cc3C2)o1`, where the note is “polymyxin B 0.75 µg/mL”, the “bacterial growth OD600” value came out at 0.705.
